From the supplement of paper PMC5949888
± gives the standard deviation of the averaged measurements. Most values lie at the floor of the assay. Slopes are relative: functional sequences can read slightly below zero.

tested on: Saccharomyces cerevisiae PS128 hsf1 delta, HSF1(1-493) fusion; assay: growth estimate (transactivation domain function in HSF1 fusion, heat-shock survival) (a.u. (slope of normalised read count over time)); higher = stronger growth at 37°C, i.e. more transactivation activity; details: library: random library
Experimental: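 Random 60-nt DNA library encoding peptides of up to 20 aa, fused to the C-terminus of yeast HSF1 residues 1-493 (C-terminal TAD deleted) and expressed from the native HSF1 promoter on a CEN plasmid in hsf1-deleted S. cerevisiae PS128. Cells were selected at 37°C on -trp 5-FOA plates for 0, 2, 4, 6 and 8 days and amplicons were sequenced. Growth estimate is the slope of a robust linear fit of total-sum-normalised read counts (normalised to the first time point) over time, using at least 2 replicates. Sequences are classed functional (TAD activity) above a threshold of -0.13, set from stop-codon control sequences.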

Substance | growth estimate
PTRCGPGALVSTRRLVA | < -0.25
IKPKVVIL | < -0.25
GGIVRHWSLVALKGRFSPRA | < -0.25
SGQAIRCQFK | < -0.25
SPVFRSEPHVFQGWACSWPR | < -0.25
HCVKKKPPGHIEPGFQRALT | < -0.25
GRLR | < -0.25
YLASEDPTSMIISPFYVSVR | < -0.25
KLIDADLH | < -0.25
EFVEKYAGTRC | < -0.25
VKARLYTTEALLSSVQRTMN | < -0.25
QRSLC | < -0.25
TRVAQLSLM | -0.231
CTLG | < -0.25
PGAATSMVHP | < -0.25
GLTCCCPSLMSVRAMVETQS | < -0.25
WKKR | < -0.25
RSCGCELKSSKVLQYDSLGP | < -0.25
DVARSQQSWQGLSFVPKRLL | < -0.25
HAL | < -0.25
RSLFCNVVEVW | < -0.25
WRLGELPLGEQPRTRKARTL | < -0.25
PAYFVRQVLSVSCADTVISR | < -0.25
LGG | -0.2492 ± 0.0011
AEGV | < -0.25
VCGAAFIEVISNLDVARCPG | < -0.25

Reformatted: entries from further up
EFVEKYAGTRC
  growth estimate = < -0.25
VKARLYTTEALLSSVQRTMN
  growth estimate = < -0.25
TRVAQLSLM
  growth estimate = -0.231
RSCGCELKSSKVLQYDSLGP
  growth estimate = < -0.25

Rewritten in CSV form: entries from further up.
Substance,growth estimate
WRLGELPLGEQPRTRKARTL,< -0.25
PAYFVRQVLSVSCADTVISR,< -0.25

Further entries follow.

Substance | growth estimate
LALCGKRLWRNIRAPCDGSI | 0.0091
TPIRRRPLFGTWGAYGVA | < -0.25
LDDVEGPRVQHSET | < -0.25
LNGYVTQVVGLGRAKPHGIC | < -0.25
AIRGGHLRLMRCQDQLNHCR | < -0.25
SSCLW | < -0.25
YETYAT | < -0.25
PFHWAPRYTERTFLRCHRR | < -0.25
EQILDVRTRRTVVRTLFIIN | < -0.25
LGCKATYSTLSMAFL | -0.246
TGPTVSVRI | < -0.25
VIDTDRSGVVRKVVDHRPPA | -0.112
WCWSR | < -0.25
SPKLGRIRAGLVQLSLIVGA | < -0.25
HAIT | < -0.25
IHLVGTYACLLNSRWVSSAK | < -0.25
TSHCKIADSSGPRFSVRLIG | < -0.25
CGIRSGGWK | < -0.25
LIQ | < -0.25
DQMSRATPLSP | < -0.25
FNGEGSDCFGVGFNK | < -0.25
GDGTSIEHSRDNGVCLRGVP | < -0.25
GIGKSGLDVGNRLVLRLVAR | < -0.25
ILMELFDLHLTFHTLPDLNK | < -0.25
LGVAEFYGSCE | < -0.25
LADVRPTSSLSVRSLPASRH | < -0.25

Substance | growth estimate
NRRWKAY | < -0.25
YHVRRE | < -0.25
LPLTFLQEGGILGVVSSAHP | < -0.25
YGRHQLIVSGSPKQSGAPFV | < -0.25
VWGLRAGAFAVQVTDVNGPD | < -0.25
NLRGLALAG | < -0.25
NWKLGALRKLQKATPIVGHH | < -0.25
YHAQRLCTQFVVMGRLRVL | < -0.25
STAGPPSY | < -0.25
SQRDRHINPHTRKLDSLR | < -0.25
AHTRHV | -0.237
HWEGFRGGDWRYLSNGGCIY | < -0.25
ISL | < -0.25
LRSGCIYGPTSQTRRSTYRV | < -0.25
ERL | -0.248 ± 0.003
VPHSVSSLQPGVL | < -0.25
SDRPVRLSRNLDNPFYARGH | < -0.25
DAANSLCFRPFICRLKGLGR | < -0.25
TQWEHEESLFDIFMTMVMGG | < -0.25
SAVVQGGPPYPNGRVCRVGF | < -0.25
FRSYDEVRRISRCGTVASGF | < -0.25
LDHFFVLPSSQSKLG | < -0.25
DIHTPLGGTTHIKV | < -0.25
RFWLDNESASAILVPIKSRH | < -0.25
SGQVSHRSVGYSLR | < -0.25
KTCMGPDDGEALFNLRR | < -0.25

Substance | growth estimate
LFVGGFLGVRLSKRPCSHDR | < -0.25
HSARGIASGPMVLRITTHDQ | < -0.25
AVRNCGSPAT | < -0.25
QTQGLKAGYTEYSRRGLQTL | < -0.25
GRVGITLSAKGHSGRAVGRT | < -0.25
VYSAFTGADSLCSLLINDEP | < -0.25
KGWTYVLCYGPG | < -0.25
VGCNYLGE | < -0.25
VSGEII | -0.245
GHAIRWLRCH | < -0.25
TLVIASHARICAYTSDWNGG | -0.175
IGAGACEDCGTGSRFT | < -0.25
LPTAVYVFVRTQSLQVP | < -0.25
RRNLNLDPPSSLASSHGRMI | < -0.25
YTP | < -0.25
GRKYVYLEWRLPPF | < -0.25
LVWWTWETGLWNRRHLIRHQ | < -0.25
VRDCL | < -0.25
ARTRQYAASDQRLLAHVIRV | < -0.25
SSLDGGEVPKDSILSRSFFV | -0.118
LHYHW | < -0.25
RCEWSRLLRA | < -0.25
CYMKVSLGRSARSLDITFQM | < -0.25
LTWSTVSPR | < -0.25
PFATYIYCDHQPIG | < -0.25
RLRFQAAPPFYGMSGGVTLS | < -0.25

Substance | growth estimate
VSGGHALRDEVKCRCGRRLR | < -0.25
GILAREDIVLGSSV | < -0.25
ACRTRLVECECLVFRCEQRH | < -0.25
LPRCRGIGNSRSGHAPCNCP | < -0.25
TSRRCVLGLECSRRIPRVRS | < -0.25
LGFLR | < -0.25
RRHPNPGG | -0.241
AGTLPSSIVVGRSLIQLFV | < -0.25
PGPCLMASPLH | < -0.25
PLFWLQPR | < -0.25
GCLRSAIGVFMGSTDQLETA | < -0.25
HRSPLVDHQSSEERGKQVGR | < -0.25
RKDTPPRKVTCRVLTKIHGR | < -0.25
SHNTNGAQLCRAHVTEDMIE | < -0.25
VGCQDRDRFQSHYVAQSQSR | < -0.25
TCGRAEASVFTAALTCLRSS | < -0.25
FCTRMG | < -0.25
VSRLLNA | < -0.25
PMEELDAV | < -0.25
WAPLERWDKDPD | < -0.25
RNQVPKP | < -0.25
RTPIWKQRLRFGQDWDN | < -0.25
RAR | < -0.25
REMIH | < -0.25
GCALIGLIKDHMDVRTTRAS | < -0.25
RSGCDCLISMSGSGD | < -0.25

Substance | growth estimate
TQQFGNPSAGCHLAGQWKTI | < -0.25
DRKPCLNLNNPISRFLRERA | -0.243
TCR | < -0.25
CRLMTLRRALTGCFRGPLVP | < -0.25
QYRWGVVRVCLEHLVH | < -0.25
AQSTVA | 0.0823
SEMVTRGCTHRARISGVDAS | < -0.25
MQRIGERPHWEKDPELHKVP | < -0.25
CEVGVS | < -0.25
ILKCQQ | < -0.25
MRLVCLNLYLKAAFVLYSQK | < -0.25
SVYEMFEGLIFRVVVESWML | < -0.25
EVVVWGRPINLPTL | < -0.25
DLHAYLDRFLLGPGLRGPNH | -0.239
IVRLYCCIVGEMLRTMYRNR | < -0.25
VHGVHGMRLTLKLHQGPYFR | < -0.25
AYICVVWWKTTYNKRVKGVW | < -0.25
ARGRKFLGIGIVRR | < -0.25
YPVLSGFGNVRESTVHRWTF | < -0.25
PTGGHRCGPPCASRMHNGGH | < -0.25
WRKGG | < -0.25
LLHACLSI | < -0.25
